Data: PubChem BioAssay AID2685 (National Center for Advancing Translational Sciences (NCATS), 2010)
This is one part of the list. These are further read-outs of the screen, such as a control signal, another cell line or another target. No call is given for them. The list favours compounds with an active or inconclusive main result. The note in brackets gives the kind of curve behind each potency; many fits are weak.

Assay: qHTS Assay for Lipid Storage Modulators in Drosophila S3 Cells;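 on cell number change: cells counted by Cell Tracker Red CMTPX staining in the red channel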
Details: BODIPY lipid droplet fluorescence, 18-24 h; for cell number change: measured here: cell count max response, cells fed with added oleic acid
Procedure, shortened: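 Laser-scanning cytometry quantifies lipid droplet accumulation (500–530 nm total intensity; droplet/cell object ratio) in oleic acid-fed (400 uM added) Drosophila S3 cells treated with a concentration series. 20 uM Triacsin C defined 100% inhibition.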

[1] = measured here: cell number channel AC50, cells fed with added oleic acid
[2] = measured here: lipid fluorescence (Fed channel) AC50, cells fed with added oleic acid

Row | SMILES | AC50 [1] | AC50 [2] | cell number change [%]
1 | CCOC(=O)c1[nH]c(C)c(C(=O)Nc2ccc(C)c(F)c2)c1C | 1460 nM [rising, partial curve] | 366 nM [rising, full curve] | –
2 | Cc1ccc(NC(=O)CSc2nc3[nH]ncc3c(=O)[nH]2)c(C)c1 | – | – | 4.98
3 | O=C1CN(C(=O)COC(=O)C2CCN(S(=O)(=O)c3ccccc3C(F)(F)F)CC2)c2ccccc2N1 | 29100 nM [rising, single point] | – | 46
4 | COc1ccc(N2CCN(C(=O)c3oc4ccccc4c3C)CC2)cc1 | – | 130 nM [rising, full curve, poor fit] | -10.3
5 | CC(=O)Nc1nc2c(s1)C(=O)NCCC2 | 29100 nM [falling, single point] | 13000 nM [falling, partial curve] | -49.2
6 | COc1ccccc1-c1nnc(SCC(=O)OC(C)C)o1 | 820 nM [falling, full curve, poor fit] | – | -42.8
7 | O=C1CC(Sc2ccc(Cl)cc2)C(=O)N1Cc1ccncc1 (stereo not drawn) | 8200 nM [rising, partial curve] | 731 nM [rising, single point] | 65.5
8 | Cc1cc(C)c2c(NC(=S)NC(=O)c3ccccc3)nn(C)c2n1 | 2910 nM [rising, partial curve] | 6510 nM [rising, partial curve] | 13.6
9 | O=C(CSc1nnnn1-c1ccc(Cl)cc1)Nc1cccnc1Cl | – | 10300 nM [falling, partial curve] | -11
10 | Cc1cc(OCC(=O)Nc2ccncc2)ccc1Cl | 14600 nM [falling, partial curve, poor fit] | 5800 nM [falling, full curve, poor fit] | -44.1
11 | Cc1ccc(OCc2cccc(S(=O)(=O)N(C)C)c2)c([N+](=O)[O-])n1 | 164 nM [rising, full curve, poor fit] | – | 29.5
12 | O=C(c1ccccn1)N1CCN(C(=O)c2ccccn2)CC1 | – | 411 nM [falling, full curve, poor fit] | -16
13 | O=C(CSc1ccc(Cl)cc1)N1CCN(c2c(Cl)cccc2[N+](=O)[O-])CC1 | – | – | 42.1
14 | O=C(NC1CCCCC1)C(c1ccco1)N(C(=O)c1csnn1)c1ccc(Cl)cc1 (stereo not drawn) | – | 4.61 nM [falling, full curve, poor fit] | 32.3
15 | Cc1ccc(F)cc1NC(=O)CSc1nc(Nc2ccccc2)nc(N2CCOCC2)n1 | – | 29100 nM [rising, single point] | 16.2
16 | Clc1ccc(Cn2cnc3ccccc32)cc1 | 146 nM [falling, full curve] | 366 nM [falling, full curve] | -32.9
17 | CC(Cc1ccccc1)C(=O)N(C)Cc1ccccc1 (stereo not drawn) | – | 580 nM [falling, full curve, poor fit] | -12.2
18 | Cc1ccc2nc(Cl)c(/C=N/Nc3ccc(C(=O)O)cc3)cc2c1 | 4110 nM [rising, single point] | 6510 nM [rising, single point] | 5.36
19 | COc1ccc(C(=O)C(C)Oc2cccc(NC(=O)c3cccc([N+](=O)[O-])c3)c2)cc1 (stereo not drawn) | 820 nM [rising, full curve, poor fit] | 820 nM [rising, full curve, poor fit] | 36.3

Structural class: the entries above containing an aryl thioether with sulfur outside any ring (six)
Row | SMILES | AC50 [1] | AC50 [2] | cell number change [%]
2 | Cc1ccc(NC(=O)CSc2nc3[nH]ncc3c(=O)[nH]2)c(C)c1 | – | – | 4.98
6 | COc1ccccc1-c1nnc(SCC(=O)OC(C)C)o1 | 820 nM [falling, full curve, poor fit] | – | -42.8
7 | O=C1CC(Sc2ccc(Cl)cc2)C(=O)N1Cc1ccncc1 (stereo not drawn) | 8200 nM [rising, partial curve] | 731 nM [rising, single point] | 65.5
9 | O=C(CSc1nnnn1-c1ccc(Cl)cc1)Nc1cccnc1Cl | – | 10300 nM [falling, partial curve] | -11
13 | O=C(CSc1ccc(Cl)cc1)N1CCN(c2c(Cl)cccc2[N+](=O)[O-])CC1 | – | – | 42.1
15 | Cc1ccc(F)cc1NC(=O)CSc1nc(Nc2ccccc2)nc(N2CCOCC2)n1 | – | 29100 nM [rising, single point] | 16.2

Next structures follow:

Row | SMILES | AC50 [1] | AC50 [2] | cell number change [%]
20 | CCS(=O)(=O)c1ccc(O)c(NC(=O)COc2ccc(OC)cc2)c1 | – | 16400 nM [rising, single point] | -17.3
21 | CCOC(=O)Cc1csc(NC(=O)NC2(C(F)(F)F)Oc3ccc(Cl)cc3O2)n1 (stereo not drawn) | – | – | 1.84
22 | O=C1CC(c2ccc(F)cc2)CC(O)=C1C=NCCN1CCN(C(=O)Nc2ccccc2)CC1 (stereo not drawn) | – | 6510 nM [rising, single point] | 2.08
23 | O=C1CSC(c2cccnc2)N1c1ccc(F)cc1 (stereo not drawn) | 731 nM [rising, full curve] | – | 45.1
24 | Cc1noc(C)c1CSc1nc2ccccc2[nH]1 | – | 51.7 nM [falling, full curve] | –
25 | OC1(c2ccc(Cl)c(Cl)c2)C[n+]2ccccc2N1Cc1ccccc1 (stereo not drawn) | – | – | 0.234
26 | CCc1noc(C)c1C(=O)Nc1nc2c(F)cc(F)cc2s1 | – | 5170 nM [rising, single point] | -7.26
27 | CCCOc1ccc([N+](=O)[O-])c(N)c1 | 23100 nM [rising, single point] | – | 33.3
28 | COc1ccc(CC(=O)N(Cc2ccccc2)c2ccccc2)cc1S(=O)(=O)N1CCOCC1 | 31600 nM [rising, single point] | 3980 nM [rising, partial curve, poor fit] | 41.5
29 | COC(=O)c1cncc(O)c1 | – | 29100 nM [falling, single point] | 6.92
30 | CC1(C)CC2CC(C)(CN2CC(O)c2ccccc2)C1 (stereo not drawn) | – | – | 2.84
31 | Cc1ccc(OS(=O)(=O)c2cn(C)c(=O)n(C)c2=O)cc1C | – | 6510 nM [rising, single point] | -8
32 | Cc1ccc(NC(=O)NC(=O)N(C2CCCCC2)S(=O)(=O)c2ccccc2)cc1 | 2310 nM [rising, partial curve] | – | 16.7
33 | Cc1[nH]c2ccc(Br)cc2c(=O)c1CN1CCOCC1 | – | 29.1 nM [falling, full curve, poor fit] | -2
34 | NS(=O)(=O)c1cccnc1Nc1cccc(Cl)c1Cl | – | 2060 nM [falling, full curve, poor fit] | -15.9
35 | O=C(O)c1cn[nH]c1-n1cnnn1 | 291 nM [falling, full curve] | 1300 nM [falling, single point] | -47.8
36 | O=c1[nH]c(-c2ccccc2O)nc2c1CCCC2 | – | 580 nM [falling, partial curve] | 3.49
37 | COc1ccc(S(=O)(=O)c2cnc3ccccc3n2)cc1 | – | – | -1.22
38 | Cn1c(C(=O)OCC(=O)NCc2cccs2)cc2sccc21 | 32600 nM [falling, single point] | – | -37.8
